Test results: article PMC10826121
These are yes or no findings as the source states them, for the method shown. Binding seen in cells or lysates may run through a third protein. Some results given as binding are weak or reduced against the parent protein; the word gives no strength.

The chains behind the UniProt entries cited, without tags or fusion partners.
UniProt P49327: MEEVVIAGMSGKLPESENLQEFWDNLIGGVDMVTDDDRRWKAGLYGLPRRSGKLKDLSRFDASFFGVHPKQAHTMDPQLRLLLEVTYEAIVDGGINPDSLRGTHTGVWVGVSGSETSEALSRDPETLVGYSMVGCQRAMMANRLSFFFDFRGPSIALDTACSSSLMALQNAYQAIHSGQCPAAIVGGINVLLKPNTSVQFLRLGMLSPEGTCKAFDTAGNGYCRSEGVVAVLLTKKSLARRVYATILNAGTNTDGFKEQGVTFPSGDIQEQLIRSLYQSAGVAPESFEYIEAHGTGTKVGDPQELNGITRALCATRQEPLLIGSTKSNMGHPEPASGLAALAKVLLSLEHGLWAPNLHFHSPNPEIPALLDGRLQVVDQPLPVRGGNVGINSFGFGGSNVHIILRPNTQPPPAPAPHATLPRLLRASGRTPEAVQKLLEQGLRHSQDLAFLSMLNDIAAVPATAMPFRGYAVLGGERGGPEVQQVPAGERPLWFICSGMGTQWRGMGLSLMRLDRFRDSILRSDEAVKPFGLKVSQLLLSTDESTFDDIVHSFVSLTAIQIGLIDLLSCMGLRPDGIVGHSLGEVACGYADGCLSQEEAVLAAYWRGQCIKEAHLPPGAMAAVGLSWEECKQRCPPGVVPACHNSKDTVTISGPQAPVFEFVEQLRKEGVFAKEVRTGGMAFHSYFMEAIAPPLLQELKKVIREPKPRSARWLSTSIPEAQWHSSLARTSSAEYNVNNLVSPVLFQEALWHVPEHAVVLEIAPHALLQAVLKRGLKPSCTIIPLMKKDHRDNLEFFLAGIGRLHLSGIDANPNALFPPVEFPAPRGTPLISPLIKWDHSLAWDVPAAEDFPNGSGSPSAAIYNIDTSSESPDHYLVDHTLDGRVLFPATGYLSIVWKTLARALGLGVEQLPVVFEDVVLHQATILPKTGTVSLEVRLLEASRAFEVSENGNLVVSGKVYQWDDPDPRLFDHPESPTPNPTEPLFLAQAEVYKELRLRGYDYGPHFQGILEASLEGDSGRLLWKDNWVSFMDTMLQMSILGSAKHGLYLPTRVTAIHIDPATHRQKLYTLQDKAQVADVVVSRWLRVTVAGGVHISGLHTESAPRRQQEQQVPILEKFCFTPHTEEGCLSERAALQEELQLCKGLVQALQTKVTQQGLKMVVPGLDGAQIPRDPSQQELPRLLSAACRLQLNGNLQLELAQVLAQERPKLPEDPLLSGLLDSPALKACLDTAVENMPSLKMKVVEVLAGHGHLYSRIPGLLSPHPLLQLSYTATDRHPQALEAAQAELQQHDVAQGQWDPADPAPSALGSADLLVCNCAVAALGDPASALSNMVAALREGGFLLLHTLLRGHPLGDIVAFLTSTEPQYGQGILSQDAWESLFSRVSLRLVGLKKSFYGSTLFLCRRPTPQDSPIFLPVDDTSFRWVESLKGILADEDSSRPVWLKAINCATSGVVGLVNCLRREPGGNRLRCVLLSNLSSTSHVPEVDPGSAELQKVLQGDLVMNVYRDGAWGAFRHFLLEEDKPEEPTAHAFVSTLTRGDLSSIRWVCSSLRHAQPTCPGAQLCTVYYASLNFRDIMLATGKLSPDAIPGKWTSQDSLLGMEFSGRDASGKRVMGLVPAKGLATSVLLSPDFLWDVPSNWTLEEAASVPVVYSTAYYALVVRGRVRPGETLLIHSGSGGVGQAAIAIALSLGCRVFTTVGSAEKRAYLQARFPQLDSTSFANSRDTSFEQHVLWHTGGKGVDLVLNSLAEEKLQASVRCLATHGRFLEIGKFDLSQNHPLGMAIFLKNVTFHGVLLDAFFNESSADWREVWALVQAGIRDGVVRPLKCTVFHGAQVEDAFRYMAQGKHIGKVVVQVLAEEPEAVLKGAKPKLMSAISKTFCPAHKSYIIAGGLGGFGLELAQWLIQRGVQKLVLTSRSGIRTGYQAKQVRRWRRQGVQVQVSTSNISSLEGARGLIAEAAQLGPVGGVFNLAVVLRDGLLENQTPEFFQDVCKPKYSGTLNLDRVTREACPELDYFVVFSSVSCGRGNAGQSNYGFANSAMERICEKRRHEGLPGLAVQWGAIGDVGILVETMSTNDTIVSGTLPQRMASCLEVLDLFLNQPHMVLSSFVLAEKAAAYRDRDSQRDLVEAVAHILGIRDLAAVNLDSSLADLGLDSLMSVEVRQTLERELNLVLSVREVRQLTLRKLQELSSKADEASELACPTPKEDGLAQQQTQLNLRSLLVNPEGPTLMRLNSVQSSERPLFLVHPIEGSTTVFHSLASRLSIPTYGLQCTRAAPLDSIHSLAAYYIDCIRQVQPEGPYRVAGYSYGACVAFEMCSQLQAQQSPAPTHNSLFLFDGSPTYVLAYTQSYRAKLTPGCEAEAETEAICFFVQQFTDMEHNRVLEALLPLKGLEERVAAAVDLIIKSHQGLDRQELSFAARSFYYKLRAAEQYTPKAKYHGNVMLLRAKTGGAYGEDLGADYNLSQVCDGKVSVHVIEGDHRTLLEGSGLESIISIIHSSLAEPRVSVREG

Molecular target: Fatty acid synthase (human (endogenous in HT29 and SW480)) (UniProt P49327)
Experiment: co-IP; lysate of HT29 or SW480 cells, 1-1.5 mg total protein; IP overnight at 4 C with 4 ug anti-FASN antibody, Protein G magnetic beads; western blotting

binding: binds
B1: phosphatidylinositol transfer protein cytoplasmic 1 (protein, UniProt Q9UKF7 1-332)
chain: MLLKEYRICMPLTVDEYKIGQLYMISKHSHEQSDRGEGVEVVQNEPFEDPHHGNGQFTEKRVYLNSKLPSWARAVVPKIFYVTEKAWNYYPYTITEYTCSFLPKFSIHIETKYEDNKGSNDTIFDNEAKDVEREVCFIDIACDEIPERYYKESEDPKHFKSEKTGRGQLREGWRDSHQPIMCSYKLVTVKFEVWGLQTRVEQFVHKVVRDILLIGHRQAFAWVDEWYDMTMDEVREFERATQEATNKKIGIFPPAISISSIPLLPSSVRSAPSSAPSTPLSTDAPEFLSVPKDRPRKKSAPETLTLPDPEKKATLNLPGMHSSDKPCRPKSE
